Record: PubChem BioAssay AID504764 (Drosophila RNAi Screening Center, 2011)

- Purpose: 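Genome-wide screen for regulators of Notch-driven gene expression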 (primary screen)
- System: Drosophila Kc167 cells
- Knock-down reagent: long dsRNA against Drosophila genes
- Timing: about 5 days (4 days dsRNA, then 24 h after transfection)
- Conditions: transfection of constitutively active membrane-tethered Notch lacking the extracellular domain, read 24 h later
- Measurement: 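Light from a Notch-responsive E(spl)m3 luciferase reporter under active Notch, with control-promoter and no-Notch reporter wells to normalise; raw counts from paired wells a and b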
- Scale: induced reporter light, run 1, well a and induced reporter light, run 1, well b: higher = more light from the Notch target reporter with active Notch; control promoter light, run 1, well a and control promoter light, run 1, well b: higher = more light from the viral control promoter (cell number, transfection, viability); uninduced reporter light, run 1, well a: higher = more light from the Notch target reporter without active Notch
- Active means: 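Hit if the duplicate-averaged log2 ratio of induced to control-promoter light gives a plate-wise z beyond ±2, or induced to uninduced beyond ±1.8; weak-control or discordant-duplicate wells dropped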
- Meaning of the calls: active = modifier hit (raised or lowered Notch signal); inactive = not a hit
The screen tested about 22,000 reagents; shown is an unselected part of those with a known target gene and a result. Over the whole deposit, 403 (1.9%) were called active. 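Unnormalised raw counts per well; ratio z-scores behind the hit calls and whether each hit raises or lowers signal are not deposited.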 A plus sign joins genes that one reagent is predicted to hit. Not given: the amount of reagent.

no.	gene	dsRNA	induced reporter light, run 1, well a	induced reporter light, run 1, well b	control promoter light, run 1, well a	control promoter light, run 1, well b	uninduced reporter light, run 1, well a	call
1	CG14356	DRSC14819	2.68e5	2.69e5	2.52e5	2.28e5	20550	inactive
2	fzr	DRSC18781	1.23e5	1.24e5	2.83e5	2.34e5	9400	inactive
3	CG13947	DRSC00365	1.93e5	1.57e5	1.53e5	1.38e5	13355	inactive
4	ana2	DRSC05952	1.31e5	1.09e5	88250	89925	8742	inactive
5	fne	DRSC20332	1.26e5	1.36e5	2.59e5	2.50e5	10130	inactive
6	Ppn	DRSC15328	1.40e5	1.26e5	1.87e5	1.72e5	10975	inactive
7	rg	DRSC17377	95265	84395	1.01e5	1.09e5	6525	inactive
8	rg	DRSC17726	2.37e5	2.23e5	3.36e5	3.69e5	16915	inactive
9	rg	DRSC18049	1.29e5	1.52e5	2.78e5	2.49e5	8600	inactive
10	CG8079	DRSC07070	1.21e5	1.29e5	1.99e5	2.50e5	12170	inactive
11	CG8079	DRSC07071	1.01e5	1.29e5	1.36e5	1.12e5	9365	inactive
12	CG12009	DRSC08217	1.10e5	96205	59640	31585	12805	inactive
13	CG13408	DRSC13534	45630	42230	65985	59885	8090	inactive
14	CG13408	DRSC14584	1.75e5	1.37e5	1.93e5	2.03e5	10300	inactive
15	CG4892	DRSC01937	1.56e5	1.79e5	2.17e5	2.40e5	14915	inactive
16	dsx	DRSC12649	1.56e5	1.40e5	1.55e5	1.23e5	10485	inactive
17	dsx	DRSC16934	1.63e5	2.06e5	1.45e5	1.26e5	12245	inactive
18	CG14770	DRSC17947	1.33e5	1.19e5	1.63e5	2.18e5	8745	inactive
19	bon	DRSC16914	1.12e5	78615	1.77e5	1.70e5	9215	active
20	CG13252	DRSC11700	1.76e5	1.29e5	1.44e5	1.20e5	10320	inactive
21	Tango9	DRSC14173	1.27e5	1.30e5	88690	82010	8710	inactive
22	CG14377	DRSC14837	2.66e5	2.42e5	2.08e5	2.02e5	18230	inactive
23	CG11200	DRSC06060	1.10e5	1.42e5	1.92e5	2.52e5	9890	inactive
24	VhaM9.7-d	DRSC15028	1.10e5	89680	97100	1.06e5	8075	inactive
25	CG17744	DRSC10286	3.07e5	2.10e5	2.89e5	3.18e5	12475	inactive
26	His2B:CG33894 + His2B:CG33872 + His2B:CG33902 + 20 more	DRSC21265	29235	36495	26785	36545	4860	inactive
27	Usp10	DRSC08282	1.01e5	94485	1.64e5	1.73e5	7810	inactive
28	Usp10	DRSC08373	80610	97155	2.96e5	2.36e5	8385	active

Part of the list above, reformatted:
{"gene":"rg","dsRNA":"DRSC17377","induced reporter light, run 1, well a":95265,"induced reporter light, run 1, well b":84395,"control promoter light, run 1, well a":1.01e5,"control promoter light, run 1, well b":1.09e5,"uninduced reporter light, run 1, well a":6525,"call":"inactive"}
{"gene":"rg","dsRNA":"DRSC17726","induced reporter light, run 1, well a":2.37e5,"induced reporter light, run 1, well b":2.23e5,"control promoter light, run 1, well a":3.36e5,"control promoter light, run 1, well b":3.69e5,"uninduced reporter light, run 1, well a":16915,"call":"inactive"}
{"gene":"rg","dsRNA":"DRSC18049","induced reporter light, run 1, well a":1.29e5,"induced reporter light, run 1, well b":1.52e5,"control promoter light, run 1, well a":2.78e5,"control promoter light, run 1, well b":2.49e5,"uninduced reporter light, run 1, well a":8600,"call":"inactive"}
{"gene":"CG8079","dsRNA":"DRSC07070","induced reporter light, run 1, well a":1.21e5,"induced reporter light, run 1, well b":1.29e5,"control promoter light, run 1, well a":1.99e5,"control promoter light, run 1, well b":2.50e5,"uninduced reporter light, run 1, well a":12170,"call":"inactive"}
{"gene":"CG8079","dsRNA":"DRSC07071","induced reporter light, run 1, well a":1.01e5,"induced reporter light, run 1, well b":1.29e5,"control promoter light, run 1, well a":1.36e5,"control promoter light, run 1, well b":1.12e5,"uninduced reporter light, run 1, well a":9365,"call":"inactive"}

Continued.
no.	gene	dsRNA	induced reporter light, run 1, well a	induced reporter light, run 1, well b	control promoter light, run 1, well a	control promoter light, run 1, well b	uninduced reporter light, run 1, well a	call
29	Nepl19	DRSC14875	1.84e5	1.56e5	2.70e5	2.80e5	13280	inactive
30	CG3611	DRSC04395	2.03e5	2.07e5	2.05e5	1.97e5	15015	inactive
31	dsx-c73A	DRSC09435	1.92e5	1.83e5	2.86e5	2.41e5	19820	inactive
32	dsx-c73A	DRSC09914	1.76e5	1.51e5	2.13e5	1.84e5	11540	inactive
33	dsx-c73A	DRSC10429	1.74e5	1.72e5	2.06e5	1.48e5	7975	inactive
34	Mst84Dd	DRSC12600	98955	1.21e5	1.14e5	92035	8725	inactive
35	PIG-G	DRSC06823	1.76e5	2.04e5	1.74e5	1.73e5	9670	active
36	CG2901	DRSC18239	2.23e5	1.68e5	3.84e5	3.30e5	15060	inactive
37	Gr58b	DRSC04140	40835	43245	43170	30070	2540	inactive
38	CG6225	DRSC15996	90400	95580	1.05e5	74975	6300	inactive
39	Mad	DRSC00759	1.86e5	1.44e5	1.91e5	1.49e5	11515	inactive
40	angel	DRSC04670	85760	82240	58925	67580	6580	inactive
41	Ggamma30A	DRSC02715	1.34e5	1.67e5	60495	1.07e5	18220	inactive
42	Ggamma30A	DRSC03331	1.15e5	1.41e5	89660	95770	18738	inactive
43	CG14410	DRSC19596	96550	93890	1.31e5	1.38e5	13570	inactive
44	fos28F (retired record)	DRSC03391	1.63e5	1.91e5	1.19e5	1.48e5	26610	inactive
45	papi	DRSC00693	1.64e5	1.88e5	1.76e5	2.03e5	18030	inactive
46	CG8321	DRSC07148	1.84e5	1.44e5	1.57e5	1.31e5	11590	inactive
47	CG14367	DRSC14829	2.07e5	2.13e5	2.12e5	1.95e5	17245	inactive
48	sens-2	DRSC02136	2.23e5	1.31e5	1.47e5	1.81e5	12325	inactive
49	sens-2	DRSC02613	1.42e5	1.41e5	1.22e5	1.14e5	9725	inactive
50	sens-2	DRSC21374						inactive
